Data published in publication PMC4422259, “Arc is a flexible modular protein capable of reversible self-oligomerization” (Biochemical Journal, 2015).
No constants are given. Whether binding was seen depends on the method and setting. Some binding calls cover weakened binding; strength is not graded here. Tags and fused reporters may be left off the sequences shown.

Legend:
[1] = target: T1, GST-hArc fusion protein (human) (UniProt Q7LC44); assay: SPR; Biacore 3000, 25°C, HBS-EP (10 mM sodium Hepes, pH 7.4, 150 mM NaCl, 3 mM EDTA, 0.005% P20); GST-hArc captured by immobilised anti-GST antibody (280-320 RU); peptides injected at 100-400 μM; 1:1 Langmuir fit; both purified
T1 sequence: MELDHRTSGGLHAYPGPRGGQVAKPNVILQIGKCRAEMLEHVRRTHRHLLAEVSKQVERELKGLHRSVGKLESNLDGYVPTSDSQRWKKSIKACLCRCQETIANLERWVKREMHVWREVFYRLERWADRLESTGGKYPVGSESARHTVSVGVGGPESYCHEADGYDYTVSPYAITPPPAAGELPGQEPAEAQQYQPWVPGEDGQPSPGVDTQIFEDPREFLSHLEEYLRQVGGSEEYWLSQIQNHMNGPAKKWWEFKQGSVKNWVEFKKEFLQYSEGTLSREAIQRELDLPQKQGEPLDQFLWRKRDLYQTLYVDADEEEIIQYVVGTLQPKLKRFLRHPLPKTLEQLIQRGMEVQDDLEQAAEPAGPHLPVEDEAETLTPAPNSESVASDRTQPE

[2] = target: V231G hArc variant (polymorphism rs201562490), cleaved from the His-ZZ fusion protein (human) (UniProt Q7LC44); assay: dynamic light scattering; V231G hArc, size distribution and thermal scans compared with the wild type; results not shown; both purified
[3] = target: recombinant human Arc (activity-regulated cytoskeleton-associated protein), wild type, cleaved from the His-ZZ-hArc fusion protein (human) (UniProt Q7LC44); assay: dynamic light scattering; hArc 22 μM (1 mg/ml) in double-distilled water, 36°C; both purified

With EQLTKCEVFRELKDLKGY [Peptide A, corresponding to the N-terminal region of α-lactalbumin] the binding [1] was “binds weakly”.

B1: V231G hArc variant (polymorphism rs201562490), cleaved from the His-ZZ fusion protein (protein, UniProt Q7LC44 1-396)
chain: MELDHRTSGGLHAYPGPRGGQVAKPNVILQIGKCRAEMLEHVRRTHRHLLAEVSKQVERELKGLHRSVGKLESNLDGYVPTSDSQRWKKSIKACLCRCQETIANLERWVKREMHVWREVFYRLERWADRLESTGGKYPVGSESARHTVSVGVGGPESYCHEADGYDYTVSPYAITPPPAAGELPGQEPAEAQQYQPWVPGEDGQPSPGVDTQIFEDPREFLSHLEEYLRQGGGSEEYWLSQIQNHMNGPAKKWWEFKQGSVKNWVEFKKEFLQYSEGTLSREAIQRELDLPQKQGEPLDQFLWRKRDLYQTLYVDADEEEIIQYVVGTLQPKLKRFLRHPLPKTLEQLIQRGMEVQDDLEQAAEPAGPHLPVEDEAETLTPAPNSESVASDRTQPE
With B1 the binding [2] was “binds”.

B2: recombinant human Arc (activity-regulated cytoskeleton-associated protein), wild type, cleaved from the His-ZZ-hArc fusion protein (natural protein, UniProt Q7LC44 1-396, looked up)
chain: MELDHRTSGGLHAYPGPRGGQVAKPNVILQIGKCRAEMLEHVRRTHRHLLAEVSKQVERELKGLHRSVGKLESNLDGYVPTSDSQRWKKSIKACLCRCQETIANLERWVKREMHVWREVFYRLERWADRLESTGGKYPVGSESARHTVSVGVGGPESYCHEADGYDYTVSPYAITPPPAAGELPGQEPAEAQQYQPWVPGEDGQPSPGVDTQIFEDPREFLSHLEEYLRQVGGSEEYWLSQIQNHMNGPAKKWWEFKQGSVKNWVEFKKEFLQYSEGTLSREAIQRELDLPQKQGEPLDQFLWRKRDLYQTLYVDADEEEIIQYVVGTLQPKLKRFLRHPLPKTLEQLIQRGMEVQDDLEQAAEPAGPHLPVEDEAETLTPAPNSESVASDRTQPE
notes: human Arc (activity-regulated cytoskeleton-associated protein); called full-length hArc; Vector pETZZ_1a; also called WT hArc; Arc/Arg3.1; source: E. coli BL21-CodonPlus, auto-induction medium, purified (Ni-NTA, TEV cleavage, second Ni-NTA flow-through); not shown: His, N-terminal, cleaved; ZZ domain, N-terminal, cleaved
For B2, the binding [3] was “no binding (condition: in double-distilled water (22 μM))”.
